Data as given in PubChem BioAssay AID652272 (Drosophila RNAi Screening Center, 2013).
The screen tested about 21,000 reagents; this is an unselected part of those that have a named target and a result. In the full data, 503 (2.4%) were called active. 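Raw plate light values, not normalised; calls rest on replicate z-scores that were not deposited; hits include reporter decreases as well as increases.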 A number with no mark means an inactive call. Reagents against one gene are numbered here. A plus sign joins genes that one reagent is predicted to hit. Not given: the amount of reagent, the time to read-out.

- Aim: 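Genes whose knock-down decreases or increases Hedgehog reporter output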 (primary screen)
- Cell system: Drosophila clone 8 (Cl8) cells
- Knock-down reagent: long dsRNA against Drosophila genes
- Measured: 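Firefly light from a Hedgehog-responsive ptc promoter reporter and Renilla reference light, both read on a plate reader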
- Direction: firefly Hh reporter signal: higher = more ptc reporter light; Renilla reference signal: higher = more Renilla control light
- Active means: 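Called a hit if the two-replicate mean z-score lies below -2 or above +3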
- Meaning of the calls: active = hit: reporter lowered or raised; inactive = not a hit

For CG34435 the deposit lists firefly Hh reporter signal, replicate 1 = 64882; firefly Hh reporter signal, replicate 2 = 1.53e5; Renilla reference signal, replicate 1 = 2549; Renilla reference signal, replicate 2 = 6156.
With knock-down of mdu (meduse), the record shows firefly Hh reporter signal, replicate 1 = 1.23e5; firefly Hh reporter signal, replicate 2 = 1.32e5; Renilla reference signal, replicate 1 = 2800; Renilla reference signal, replicate 2 = 3898.
CG34230 scored firefly Hh reporter signal, replicate 1 = 1.31e5; firefly Hh reporter signal, replicate 2 = 2.26e5; Renilla reference signal, replicate 1 = 3184; Renilla reference signal, replicate 2 = 8407.
CG42342 #1 scored firefly Hh reporter signal, replicate 1 = 38152; firefly Hh reporter signal, replicate 2 = 2.99e5; Renilla reference signal, replicate 1 = 5972; Renilla reference signal, replicate 2 = 6196.
CG42342 #2 scored firefly Hh reporter signal, replicate 1 = 1.82e5; firefly Hh reporter signal, replicate 2 = 21696; Renilla reference signal, replicate 1 = 1452; Renilla reference signal, replicate 2 = 1452.
For CG42342 #3, the entry reads firefly Hh reporter signal, replicate 1 = 1.85e5; firefly Hh reporter signal, replicate 2 = 1.64e5; Renilla reference signal, replicate 1 = 6066; Renilla reference signal, replicate 2 = 4740.
Knock-down of CG42342 #4 resulted in: firefly Hh reporter signal, replicate 1 = 1.18e5; firefly Hh reporter signal, replicate 2 = 1.60e5; Renilla reference signal, replicate 1 = 3989; Renilla reference signal, replicate 2 = 4551.
Depletion of CG42342 #5 came out at: firefly Hh reporter signal, replicate 1 = 1.11e5; firefly Hh reporter signal, replicate 2 = 92940; Renilla reference signal, replicate 1 = 4176; Renilla reference signal, replicate 2 = 2640.
For mod(mdg4) + pre-mod(mdg4)-Z + pre-mod(mdg4)-T #1 the deposit lists firefly Hh reporter signal, replicate 1 = 52375; firefly Hh reporter signal, replicate 2 = 1.59e5; Renilla reference signal, replicate 1 = 10715; Renilla reference signal, replicate 2 = 3963.
Knock-down of mod(mdg4) + pre-mod(mdg4)-Z + pre-mod(mdg4)-T #2 gave: firefly Hh reporter signal, replicate 1 = 7.97e5; firefly Hh reporter signal, replicate 2 = 2.22e5; Renilla reference signal, replicate 1 = 41274; Renilla reference signal, replicate 2 = 6003.

Records listed so far whose gene name begins with M or m:
mdu (meduse): firefly Hh reporter signal, replicate 1 = 1.23e5; firefly Hh reporter signal, replicate 2 = 1.32e5; Renilla reference signal, replicate 1 = 2800; Renilla reference signal, replicate 2 = 3898
mod(mdg4) + pre-mod(mdg4)-Z + pre-mod(mdg4)-T #1: firefly Hh reporter signal, replicate 1 = 52375; firefly Hh reporter signal, replicate 2 = 1.59e5; Renilla reference signal, replicate 1 = 10715; Renilla reference signal, replicate 2 = 3963
mod(mdg4) + pre-mod(mdg4)-Z + pre-mod(mdg4)-T #2: firefly Hh reporter signal, replicate 1 = 7.97e5; firefly Hh reporter signal, replicate 2 = 2.22e5; Renilla reference signal, replicate 1 = 41274; Renilla reference signal, replicate 2 = 6003

Next entries:
Silencing of hubl (hug-bell) came out at: firefly Hh reporter signal, replicate 1 = 1.02e5; firefly Hh reporter signal, replicate 2 = 75626; Renilla reference signal, replicate 1 = 2412; Renilla reference signal, replicate 2 = 6353.
Knock-down of ttm3 (tiny tim 3) resulted in: firefly Hh reporter signal, replicate 1 = 89997; firefly Hh reporter signal, replicate 2 = 70198; Renilla reference signal, replicate 1 = 2485; Renilla reference signal, replicate 2 = 6409.
Against CG15199, the entry reads firefly Hh reporter signal, replicate 1 = 54357; firefly Hh reporter signal, replicate 2 = 2.09e5; Renilla reference signal, replicate 1 = 1299; Renilla reference signal, replicate 2 = 7604.
Silencing of CG4789 resulted in: firefly Hh reporter signal, replicate 1 = 81005; firefly Hh reporter signal, replicate 2 = 1.78e5; Renilla reference signal, replicate 1 = 2681; Renilla reference signal, replicate 2 = 6953.
Knock-down of pip (pipe) resulted in: firefly Hh reporter signal, replicate 1 = 68762; firefly Hh reporter signal, replicate 2 = 81132; Renilla reference signal, replicate 1 = 2562; Renilla reference signal, replicate 2 = 2272.
After knock-down of Drsl4 (Drosomycin-like 4), the screen gave firefly Hh reporter signal, replicate 1 = 90785; firefly Hh reporter signal, replicate 2 = 2.07e5; Renilla reference signal, replicate 1 = 2642; Renilla reference signal, replicate 2 = 8752.
Depletion of NSD (Nuclear receptor binding SET domain protein) resulted in: firefly Hh reporter signal, replicate 1 = 92436; firefly Hh reporter signal, replicate 2 = 1.35e5; Renilla reference signal, replicate 1 = 3574; Renilla reference signal, replicate 2 = 3981.
wde (windei) showed firefly Hh reporter signal, replicate 1 = 88032; firefly Hh reporter signal, replicate 2 = 51175; Renilla reference signal, replicate 1 = 4656; Renilla reference signal, replicate 2 = 3047.
Against Srlp (Spliceosome-ribosome linker protein), the entry reads firefly Hh reporter signal, replicate 1 = 35462; firefly Hh reporter signal, replicate 2 = 78261; Renilla reference signal, replicate 1 = 807; Renilla reference signal, replicate 2 = 3590.
CG7059 showed firefly Hh reporter signal, replicate 1 = 1.02e6; firefly Hh reporter signal, replicate 2 = 1.78e5; Renilla reference signal, replicate 1 = 49661; Renilla reference signal, replicate 2 = 4321.
Silencing of CG10973 resulted in: firefly Hh reporter signal, replicate 1 = 93901; firefly Hh reporter signal, replicate 2 = 79340; Renilla reference signal, replicate 1 = 3965; Renilla reference signal, replicate 2 = 3148.
Knock-down of GlcAT-S (Glucuronyltransferase S) came out at: firefly Hh reporter signal, replicate 1 = 66067; firefly Hh reporter signal, replicate 2 = 46840; Renilla reference signal, replicate 1 = 3019; Renilla reference signal, replicate 2 = 2045.
CG6836 gave firefly Hh reporter signal, replicate 1 = 91533; firefly Hh reporter signal, replicate 2 = 92517; Renilla reference signal, replicate 1 = 2548; Renilla reference signal, replicate 2 = 3619.
CG10347 showed firefly Hh reporter signal, replicate 1 = 69651; firefly Hh reporter signal, replicate 2 = 2.06e5; Renilla reference signal, replicate 1 = 2124; Renilla reference signal, replicate 2 = 7400.
Silencing of Prp16 (pre-mRNA processing factor 16) #1 came out at: firefly Hh reporter signal, replicate 1 = 57744; firefly Hh reporter signal, replicate 2 = 79217; Renilla reference signal, replicate 1 = 1576; Renilla reference signal, replicate 2 = 2134.
With knock-down of Prp16 (pre-mRNA processing factor 16) #2, the record shows firefly Hh reporter signal, replicate 1 = 41392; firefly Hh reporter signal, replicate 2 = 1.51e5; Renilla reference signal, replicate 1 = 1645; Renilla reference signal, replicate 2 = 7672.
CG10543 scored firefly Hh reporter signal, replicate 1 = 54131; firefly Hh reporter signal, replicate 2 = 52502; Renilla reference signal, replicate 1 = 1552; Renilla reference signal, replicate 2 = 4631.
